According to PubChem BioAssay AID540275 (National Center for Advancing Translational Sciences (NCATS), 2011):
The whole screen tested about 320,000 compounds, of which about 620 (0.19%) were called active. This list was built around the results that the source calls inconclusive (neither active nor inactive); the mix of calls is not that of the screen. Cut-off read from the data, not from the text of the source: active = activation above about 80%; inconclusive = between about 30% and that limit; inactive = weaker than that.

Chains of the proteins cited; added tags and fusions are not shown.
UniProt Q8NER1, whole entry, looked up: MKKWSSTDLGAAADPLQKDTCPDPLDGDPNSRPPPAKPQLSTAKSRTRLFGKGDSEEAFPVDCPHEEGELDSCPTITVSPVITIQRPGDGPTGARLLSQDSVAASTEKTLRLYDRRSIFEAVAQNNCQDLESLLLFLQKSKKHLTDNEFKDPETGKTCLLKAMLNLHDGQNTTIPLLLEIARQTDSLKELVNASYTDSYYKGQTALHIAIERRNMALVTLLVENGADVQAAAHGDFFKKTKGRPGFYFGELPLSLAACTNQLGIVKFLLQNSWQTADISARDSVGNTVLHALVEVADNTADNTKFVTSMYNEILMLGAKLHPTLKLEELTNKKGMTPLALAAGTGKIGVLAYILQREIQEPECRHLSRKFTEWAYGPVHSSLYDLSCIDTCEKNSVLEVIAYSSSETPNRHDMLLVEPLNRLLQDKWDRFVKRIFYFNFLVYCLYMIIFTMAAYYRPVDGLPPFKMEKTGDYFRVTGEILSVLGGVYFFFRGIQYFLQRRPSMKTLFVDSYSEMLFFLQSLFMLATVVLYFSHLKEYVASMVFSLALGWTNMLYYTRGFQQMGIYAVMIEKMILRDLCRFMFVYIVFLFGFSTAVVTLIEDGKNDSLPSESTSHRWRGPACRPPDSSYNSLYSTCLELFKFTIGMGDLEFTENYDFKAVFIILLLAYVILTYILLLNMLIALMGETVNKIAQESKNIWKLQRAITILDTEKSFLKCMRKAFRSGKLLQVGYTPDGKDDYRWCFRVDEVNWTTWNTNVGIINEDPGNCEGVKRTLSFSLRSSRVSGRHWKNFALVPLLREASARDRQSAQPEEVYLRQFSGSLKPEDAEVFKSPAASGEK

target: Transient receptor potential cation channel subfamily V member 1 (Homo sapiens) (UniProt Q8NER1); test: HTS Assay for Compounds that Act as Agonists of the Vanilloid Receptor 1; settings: TRPV1-expressing cells, Fluo-8 calcium influx, agonist mode; at 8.33 µM, hits give high values; note: 0% is about no effect
Method in brief: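 Cells expressing TRPV1 were dye-loaded with Fluo-8 and read kinetically: 10 s baseline, 3 min after compound (agonist portion), then 2 min after EC20 capsaicin (allosteric enhancer portion). Calcium-bound dye fluorescence at 480/520 nm.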

| Structure (SMILES) | activation |
| --- | --- |
| Cc1ccc(SCCC(=O)Nc2ccccc2C(=O)NC2CCCCC2)cc1 | inconclusive: 34.9% |
| COc1cc2nc(C3CCC3)nc(N3CCN(c4ccccc4OC)CC3)c2cc1OC | inactive: 11.3% |
| CC1(C(=O)OCC(=O)NC(=O)c2ccccc2)CC1(Cl)Cl (stereo not given) | inconclusive: 74.1% |
| O=C(NCCSCc1c(F)cccc1Cl)Nc1ccccc1 | active: 82.8% |
| CN(C)c1ccc(/C=N/n2cnn(Cc3ccccc3Cl)c2=S)cc1 | inconclusive: 41.4% |
| Cc1ccc(C(c2cc(Cl)c3cccnc3c2O)N2CCN(C)CC2)cc1 (stereo not given) | inactive: 4.83% |
| O=C(Cc1ccc(Cl)cc1)N1CCN(c2ccccc2)CC1 | inactive: 0.615% |
| COc1ccccc1NC(=O)c1oc2ccccc2c1NC(=O)C1CC1 | inconclusive: 31.3% |
| Cc1ccc(N(CC(=O)NC2CCCC2)C(=O)c2nsc(Cl)c2Cl)cc1 | inactive: 25.8% |
| Cc1ccc(SCc2cc(=O)n(C)[nH]2)cc1 | inconclusive: 45.6% |
| CN(C)c1ccc(NC(=S)c2ccccn2)cc1 | inconclusive: 76.4% |
| O=C(Nc1ncc(Cc2cccc(Cl)c2)s1)c1ccc([N+](=O)[O-])cc1 | inconclusive: 41.6% |
| CC1=Nn2c(nc3sc4c(c3c2=O)CCCC4)SC1 | inconclusive: 44.2% |
| Cc1ccc(C(c2c(C)n(C)n(-c3ccccc3)c2=O)c2c(C)n(C)n(-c3ccccc3)c2=O)s1 | inactive: 6.42% |
| O=C(C1CC(c2ccc(F)cc2)=NO1)N1CCc2ccccc2C1 (stereo not given) | inconclusive: 40.4% |
| COc1ccc(NS(=O)(=O)c2cc(NC(=O)c3ccc(C)o3)ccc2N2CCCCC2)cc1 | inconclusive: 37.9% |
| COc1cc(OC)c(-c2nnc3n(CCc4ccccc4)c(=O)c4ccccc4n23)cc1OC | inactive: -13.1% |
| CC(C)Oc1ccc(CN2CCC(n3nccc3NC(=O)CCc3ccccc3)CC2)cc1 | inactive: -0.32% |
| CNC(=O)c1ccc(OCc2ccccc2)c(OC)c1 | inconclusive: 38.2% |
| CCCCCOP(=O)(c1ccccc1)c1ccccc1 | inconclusive: 42.9% |
| Cn1nc(C(F)(F)F)c2cc(C(=O)Nc3ccc(F)c(Cl)c3)sc21 | inconclusive: 49.2% |
| Cn1c(C(=O)N2CCCC(C(=O)NCc3ccccc3)C2)cc2sccc21 (stereo not given) | inconclusive: 38.7% |
| O=C(N/N=C/c1ccc(O)cc1)c1cccc(C(F)(F)F)c1 | inconclusive: 38.9% |

| Structure (SMILES) | activation |
| --- | --- |
| COc1cc(C(CCN2CCOCC2)c2c(OC)cc(OC)c3c2OC(=O)CC3c2ccc(N(C)C)cc2)cc(OC)c1OC (stereo not given) | inconclusive: 65.9% |
| CCc1ccc(OCC(=O)NC(C)C)cc1 | inconclusive: 46.2% |
| COc1ccc(NC(=O)c2ccc3c(c2)OCO3)cc1[N+](=O)[O-] | inconclusive: 43.9% |
| Cc1ccccc1OCC(=O)N/N=C/c1cccc(Oc2ccc([N+](=O)[O-])cc2[N+](=O)[O-])c1 | inactive: -5.05% |
| O=C(Nc1ccc(N2CCCC2)cc1)c1cc2ccccc2o1 | inconclusive: 64.7% |
| CC(C)Cn1c(N)c(C(=O)COC(=O)c2cnc(Cl)c(Cl)c2)c(=O)n(C)c1=O | inactive: -0.984% |
| COC(=O)c1ccc(CSc2ccc3nnc(-c4cccnc4)n3n2)o1 | inactive: -0.297% |
| O=C1CCCc2ccccc2N1Cc1cccc(F)c1 | inactive: 3.92% |
| Cc1ccc(N=Nc2c(C)[nH]n(C(N)=S)c2=O)cc1C | inactive: 3.51% |
| Cc1csc(NC(=O)c2cc3c(s2)CCCCC3)n1 | inconclusive: 44.8% |
| CCOc1ccccc1N1CCN(C(=O)c2cc3c(s2)CCC3)CC1 | inconclusive: 55% |
| CCC1CCCCN1C(=O)/C=C/c1ccc2c(c1)OCO2 (stereo not given) | inconclusive: 44.2% |
| Cc1cc(C(=O)NCCC2=CCCCC2)ccc1[N+](=O)[O-] | active: 83.3% |
| CN(C)c1ccc(N=Cc2nc(-c3ccccc3)oc2OC(=O)c2ccccc2)cc1 | inconclusive: 34.9% |
| C/C(=C1\SC(N2CCOCC2)=NC1=O)c1ccc(C)cc1 | inconclusive: 66.8% |
| CCOP(=O)(OCC)c1nc(-c2ccccc2)oc1N1CCCCC1 | inconclusive: 46.7% |
| C=CCn1c(-c2ccc(Cl)cc2)cnc1SC(C)C(N)=O (stereo not given) | inactive: -1.67% |
| CC(C)(C)c1ccc(S(=O)(=O)N(CCCN2CCOCC2)Cc2cccs2)cc1 | inconclusive: 43.9% |
| O=C(CSc1c(F)c(F)cc(F)c1F)Nc1ccc(C2SCCS2)cc1 | inconclusive: 68.4% |
| O=C1/C(=C/c2ccccc2)Nc2ccccc21 | inconclusive: 65.5% |
| CCc1c(C)sc(NC(=O)c2cccs2)c1C#N | inconclusive: 33.2% |
| Cc1c(CCC(=O)NCCCn2ccnc2)c(=O)oc2c(C)c3oc4c(c3cc12)CCCC4 | inconclusive: 50.5% |

By substructure: those above with an NH in an aromatic ring

| Structure (SMILES) | activation |
| --- | --- |
| Cc1ccc(SCc2cc(=O)n(C)[nH]2)cc1 | inconclusive: 45.6% |
| Cc1ccc(N=Nc2c(C)[nH]n(C(N)=S)c2=O)cc1C | inactive: 3.51% |
